Measured values reported in PMC10151503.

Sequences of proteins named here, by UniProt entry; tags and fusion partners are left off. A change or cut given only in a name is not applied to a line headed by its entry.
UniProt P48781, whole entry K31A/E35A: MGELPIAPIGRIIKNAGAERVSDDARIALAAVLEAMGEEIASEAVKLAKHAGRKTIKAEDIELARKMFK
UniProt P19267: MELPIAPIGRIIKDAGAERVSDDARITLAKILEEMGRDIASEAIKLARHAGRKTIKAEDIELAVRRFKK

Legend:
[1] = molecular target: HMfA K31A E35A (Methanothermus fervidus) (UniProt P48781); assay: MST; conditions: affinity too low to be fitted (n.a.); MST: 50 mM Tris-HCl pH 8, 75 mM KCl, 20 nM DNA (40 nM diluted 1:1), 5 min at room temperature (0.2% Tween20 where noted); recombinant protein; label: 5' Cy5 top strand
[2] = molecular target: HMfB (Methanothermus fervidus) (UniProt P19267); assay: MST; conditions: 0.2% Tween20, Hill h 1.22 ± 0.15; MST: 50 mM Tris-HCl pH 8, 75 mM KCl, 20 nM DNA (40 nM diluted 1:1), 5 min at room temperature (0.2% Tween20 where noted); recombinant protein; label: 5' Cy5 top strand

| Sequence | binding result [1] | Kd [2] [µM] |
| --- | --- | --- |
| CGGCGCAAATTCGTGACCAGTTGCATCAGCTGCGTGAGCTGTTTATCGCAGCATCGTAACAGGATAGTGAAGAAGACT (double strand) [Nonspecific 78 bp] | binds more weakly | 19.6 |
| GGATCCCTGTCGGCACAGTTGAGCGATCAAAAACGCCGTAGAACGCTTTAATTGATAATCAAAGGCCGCAGAGAGCTC (double strand) [Clone20 78 bp] | binds more weakly | – |

The exact form of at least one protein or probe is not confirmed. For part of these data: The comparison behind a weaker result is the experiment's own reference, which may not be listed here.
